{"source": "patent US5441887A", "about": "“Rapid degradation of halogenated hydrocarbons by soluble methane monooxygenase” (Regents of the University of Minnesota, priority 1994, dated 1995)", "origin": "cited, not measured here", "data": [{"test_system": "methanogenic mixed bacterial culture", "conditions": "2-day retention time, influent about 15-40 μg/l; cited from earlier work", "values": [{"smiles": "ClC(Cl)Br", "note": "[bromodichloromethane]", "Degradation under methanogenic conditions": "substantially degraded"}, {"smiles": "ClC(Cl)Cl", "note": "[chloroform]", "Degradation under methanogenic conditions": "substantially degraded"}, {"smiles": "ClC(Cl)(Cl)Cl", "note": "[carbon tetrachloride]", "Degradation under methanogenic conditions": "substantially degraded"}, {"smiles": "ClC(Cl)C(Cl)Cl", "note": "[1,1,2,2-tetrachloroethane]", "Degradation under methanogenic conditions": "substantially degraded"}, {"smiles": "ClC(Cl)=C(Cl)Cl", "note": "[PCE, tetrachloroethylene]", "Degradation under methanogenic conditions": "substantially degraded"}, {"smiles": "BrC(Br)Br", "note": "[bromoform]", "Degradation under methanogenic conditions": "substantially degraded"}, {"smiles": "CC(Cl)(Cl)Cl", "note": "[1,1,1-trichloroethane]", "Degradation under methanogenic conditions": "substantially degraded"}, {"smiles": "ClC(Br)Br", "note": "[dibromochloromethane]", "Degradation under methanogenic conditions": "substantially degraded"}]}]}
